In paper doi:10.1101/2022.05.17.492379:
For at least one entry, the source does not settle the construct or the ends of the probe. For some of these results: Weaker means in comparison with the reference protein, sequence or condition of that experiment. At least one verdict rests on a figure or table, not on a statement of the authors.

Sequences of proteins named here, by UniProt entry; tags and fusion partners are left off. A change or cut given only in a name is not applied to a line headed by its entry.
UniProt Q61539: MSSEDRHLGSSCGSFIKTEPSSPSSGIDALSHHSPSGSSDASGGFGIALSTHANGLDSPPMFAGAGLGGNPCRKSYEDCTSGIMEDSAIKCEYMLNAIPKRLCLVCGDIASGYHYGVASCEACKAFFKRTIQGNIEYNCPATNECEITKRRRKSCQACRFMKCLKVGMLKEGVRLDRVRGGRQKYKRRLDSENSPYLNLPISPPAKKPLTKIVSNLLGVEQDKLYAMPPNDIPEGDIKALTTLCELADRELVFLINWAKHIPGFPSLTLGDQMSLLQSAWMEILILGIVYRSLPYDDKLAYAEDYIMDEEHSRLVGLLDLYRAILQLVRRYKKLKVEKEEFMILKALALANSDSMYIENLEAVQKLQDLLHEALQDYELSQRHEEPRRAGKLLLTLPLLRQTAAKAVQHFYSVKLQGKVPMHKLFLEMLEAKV
UniProt P45448: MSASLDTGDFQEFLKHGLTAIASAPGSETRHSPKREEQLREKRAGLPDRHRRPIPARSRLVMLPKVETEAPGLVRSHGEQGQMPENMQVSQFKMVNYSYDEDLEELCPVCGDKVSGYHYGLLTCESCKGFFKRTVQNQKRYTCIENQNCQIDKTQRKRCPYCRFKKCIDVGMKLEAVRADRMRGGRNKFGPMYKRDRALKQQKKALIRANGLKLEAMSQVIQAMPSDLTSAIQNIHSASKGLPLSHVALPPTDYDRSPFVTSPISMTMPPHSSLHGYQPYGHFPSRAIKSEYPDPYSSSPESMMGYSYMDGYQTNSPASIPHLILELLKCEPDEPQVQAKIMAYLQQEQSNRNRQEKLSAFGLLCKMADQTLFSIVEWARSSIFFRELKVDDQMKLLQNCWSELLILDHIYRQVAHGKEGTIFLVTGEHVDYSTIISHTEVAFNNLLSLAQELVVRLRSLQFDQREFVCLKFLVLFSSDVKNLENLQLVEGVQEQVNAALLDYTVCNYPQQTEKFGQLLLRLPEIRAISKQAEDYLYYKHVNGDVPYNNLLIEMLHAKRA

Tests used:
Esrrb (Mus musculus) = Esrrb (Mus musculus) (UniProt Q61539); assay: EMSA; conditions: competitor DNA present; residues 1-433
Nr5a2 (Mus musculus) = Nr5a2 (Mus musculus) (UniProt P45448); assay: EMSA; conditions: competitor DNA present; residues 1-560

Sequence: GAGAGAGTCAAGGTCATGGCTCACT (double strand) [Esrrb motif DNA]
- binding result (Esrrb (Mus musculus)): binds
- binding result (Nr5a2 (Mus musculus)): binds

Sequence: GAGAGAGTCAAGGCCATGGCTCACT (double strand) [Nr5a2 motif DNA]
- binding result (Esrrb (Mus musculus)): binds more weakly
- binding result (Nr5a2 (Mus musculus)): binds
